{"source": "patent US20150274828A1", "about": "(SHANGHAI SERUM BIOTECHNOLOGY, published 2015)", "binders": {"B1": {"name": "Ame55 phage single chain antibody (scFv)", "scFv": "SYELTQPPSVSVAPGQTARITCSGDALGDKYASWYQQKPGQAPVLVIYEDSKRPSGIPERFSGSNSGNTATLTISGTQAEDEADYYCSVWDGDWGMPVFGGGTKLTVLGSGGSTITSYNVYYTKLSSSGSEVQLVQSGAEVKKPGESLKISCKGSGYSFTSYWIGWVRQMPGKGLEWMGIIYPGDSDTRYSPSFQGQVTISADKSISTAYLQWSSLKASDTAMYYCARGIIYPSNVAVWGQGTLVTVSS", "notes": "the phage coat fusion is not described; also called Ame55 phage antibody; Ame55 single chain antibody"}}, "key": {"TNF": {"biological_target": "TNF", "assay": "phage ELISA, antigen coated, anti-M13-HRP"}, "VEGF": {"biological_target": "VEGF", "assay": "phage ELISA, antigen coated, anti-M13-HRP"}}, "note": "Results are given in words; binding and its absence hold for the method and conditions named."}
{"binder": "B1", "values": [{"measurement": "binding", "setting": "TNF", "result": "no binding"}, {"measurement": "binding", "setting": "VEGF", "result": "no binding"}]}
